Patent publication US20250152677

Sequences of proteins named here, by UniProt entry; tags and fusion partners are left off.
UniProt Q9NQB0, whole entry: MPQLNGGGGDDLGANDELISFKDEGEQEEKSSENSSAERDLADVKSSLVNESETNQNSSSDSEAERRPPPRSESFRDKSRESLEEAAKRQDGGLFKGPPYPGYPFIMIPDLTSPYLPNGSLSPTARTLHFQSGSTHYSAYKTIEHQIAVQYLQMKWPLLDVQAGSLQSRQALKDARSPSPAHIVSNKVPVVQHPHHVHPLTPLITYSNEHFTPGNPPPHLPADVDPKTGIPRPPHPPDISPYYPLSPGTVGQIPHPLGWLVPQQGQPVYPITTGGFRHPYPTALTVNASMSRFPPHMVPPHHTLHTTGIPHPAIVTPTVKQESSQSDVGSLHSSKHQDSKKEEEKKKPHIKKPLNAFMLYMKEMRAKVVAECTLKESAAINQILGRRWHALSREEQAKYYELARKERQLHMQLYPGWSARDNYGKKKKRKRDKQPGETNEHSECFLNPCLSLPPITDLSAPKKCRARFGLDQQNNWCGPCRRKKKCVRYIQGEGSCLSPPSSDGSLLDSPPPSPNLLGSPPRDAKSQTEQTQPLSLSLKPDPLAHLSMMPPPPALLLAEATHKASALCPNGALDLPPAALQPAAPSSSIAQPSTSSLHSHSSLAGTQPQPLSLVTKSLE

Target: TCF-4 (TCF7L2) (Homo sapiens) (UniProt Q9NQB0)
Assay: binding assay
Conditions: CITED public ChIP-seq GSM782122, HepG2, chr14:101,283,029-101,284,356, protein in cells, protein details: endogenous

ATTGCTTGAGCCCAGGAGTTTGAGGCTGCAATGAACCATGATTGCACCACTGTACTCCAGCCTGGGCAACAAAGTGAGATCTCGTCCCAAAAAAAGATAAATAAAAAGAAAATAGTCTGTTTTAGTCTGTATTCAGAGCAAGCCTGTGGCATGAATATCAACTTTCCTGTTTTTGCAGGGGGGAAACCGAGGCCTGGCAGGGCGAAGTGGGCAGGACCCTTCTCAAAGGGCCAGGGTGCTAGTGGCCACTGTCCTTCCCCCACCACCTCCACGCCCCCATCCCCCCACAGTTCACGACTGCAAAGGCAGCTTTAGGTTGGGAGCTGGTGGAGCAAAAAGGCCGTTCAAAGGCAGCCTTCGTTTGCTTTTCCTTATCATCACATGTGCAAGGGCAGCTCCGTTTACCTAGAGGCAGGCGTCTTTGAGCTCATCCTTTCCGCAAACACCTAAAGGGTATGTTGAACATTTGAGCCCCTGTCTCAGAGGGCGCAGCGTTTGCACAACATAAGCCCTGGCGGCTCGGTAGACGGGTATGGGGGGTAGACTCAGGTTTCTGGATGAAGCACTGAGAGCCAAGGTGACCTGCGGTGTTCCGGGATGACCTTTGGTGACCTTCGGTCCTGTCCAGTGACCTGGGGTGGTGAAGTTACCCCAAATGGGAGGAAATGAACTCTGGGTGGGCGAAGGCTGCAGGACGTGTTGGCATGATGGCTGTAGAAAGTGCACACCAGGGCTGGTGTGGAGGGCGCCTCGGCTGCTCTGAGAATCTTCCACTACCCCGGCCTGGGATTCCCAGGAAAGGCTGGTGGTGGAGGCCAGAGAGGCTCA (double strand) [human beta-catenin/TCF-4 binding site upstream of MEG3]
binding result: binds

For at least one entry, the source does not settle the construct or the ends of the probe. At least one result comes from cells or an extract, where the contact may be indirect.
